Measured values reported in article doi:10.1101/2021.08.22.457283.
No constants are given. Whether binding was seen depends on the method and setting. Binding seen in cells or lysates may run through a third protein. Binding can be weak; no strength is given.

Experiments:
[1] = target: T1, SPECC1L (human (endogenous in U2OS)) (UniProt Q69YQ0); test: co-IP
T1 sequence: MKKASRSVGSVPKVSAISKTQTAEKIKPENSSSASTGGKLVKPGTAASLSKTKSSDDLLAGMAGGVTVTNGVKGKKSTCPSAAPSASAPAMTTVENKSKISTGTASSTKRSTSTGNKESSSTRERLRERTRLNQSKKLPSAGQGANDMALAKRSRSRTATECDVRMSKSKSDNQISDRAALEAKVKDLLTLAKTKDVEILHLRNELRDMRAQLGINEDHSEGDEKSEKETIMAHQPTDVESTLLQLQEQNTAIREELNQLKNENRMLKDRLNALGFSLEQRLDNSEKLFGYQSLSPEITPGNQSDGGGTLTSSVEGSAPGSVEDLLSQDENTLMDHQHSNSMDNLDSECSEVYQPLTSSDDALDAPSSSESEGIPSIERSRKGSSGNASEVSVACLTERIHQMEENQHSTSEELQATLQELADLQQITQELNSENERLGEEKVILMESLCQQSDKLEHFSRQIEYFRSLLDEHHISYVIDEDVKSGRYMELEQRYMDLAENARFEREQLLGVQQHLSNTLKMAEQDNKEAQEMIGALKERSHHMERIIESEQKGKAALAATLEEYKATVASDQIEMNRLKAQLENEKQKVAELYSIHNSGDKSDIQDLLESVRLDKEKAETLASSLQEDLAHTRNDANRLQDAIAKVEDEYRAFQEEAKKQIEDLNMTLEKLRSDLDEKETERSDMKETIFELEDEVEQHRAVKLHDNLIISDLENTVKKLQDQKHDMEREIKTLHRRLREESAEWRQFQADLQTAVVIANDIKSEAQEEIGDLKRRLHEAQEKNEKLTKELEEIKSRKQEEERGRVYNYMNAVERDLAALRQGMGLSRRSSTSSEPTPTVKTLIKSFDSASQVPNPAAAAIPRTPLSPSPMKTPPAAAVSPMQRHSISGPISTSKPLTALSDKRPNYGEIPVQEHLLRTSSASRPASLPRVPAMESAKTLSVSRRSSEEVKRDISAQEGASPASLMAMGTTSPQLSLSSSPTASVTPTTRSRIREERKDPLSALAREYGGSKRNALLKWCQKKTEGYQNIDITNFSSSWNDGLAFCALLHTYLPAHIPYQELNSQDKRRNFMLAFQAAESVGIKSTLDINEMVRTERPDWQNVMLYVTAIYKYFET

[2] = target: T2, TWIST1 (mouse (endogenous in embryonic hindbrain tissue)) (UniProt P26687); test: co-IP
T2 sequence: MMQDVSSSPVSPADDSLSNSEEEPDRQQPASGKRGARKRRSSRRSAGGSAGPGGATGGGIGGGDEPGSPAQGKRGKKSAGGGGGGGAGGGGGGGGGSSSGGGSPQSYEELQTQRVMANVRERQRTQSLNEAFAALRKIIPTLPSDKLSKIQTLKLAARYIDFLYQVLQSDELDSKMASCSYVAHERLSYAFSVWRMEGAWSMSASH

binding [1] | binding [2] | Substance
binds | – | E-CADHERIN (human (endogenous in U2OS))
– | binds | α-CATENIN
